These are yes or no findings as the source states them, for the method shown. Some entries that bind do so weakly or less than the wild type.
Legend:
[1] = target: endogenous human Tie1 (primary endothelial cells HDMVEC/HDMEC, HUVEC, HMEC; human tissue sections; SW480 tumor cells) (human) (UniProt P35590); experiment: IF, HDMEC
[2] = target: endogenous human Tie1 (primary endothelial cells HDMVEC/HDMEC, HUVEC, HMEC; human tissue sections; SW480 tumor cells) (human) (UniProt P35590); experiment: WB, HDMEC
[3] = target: V5-tagged full length human Tie1 expressed in COS1 cells (pcDNA3-Tie1-V5) (human) (UniProt P35590); experiment: WB, IP and immunofluorescence
[4] = target: endogenous human Tie1 (primary endothelial cells HDMVEC/HDMEC, HUVEC, HMEC; human tissue sections; SW480 tumor cells) (human) (UniProt P35590); experiment: WB, IP and immunofluorescence
[5] = target: V5-tagged full length human Tie1 expressed in COS1 cells (pcDNA3-Tie1-V5) (human) (UniProt P35590); experiment: IF, Tie1-transfected COS1 cells
[6] = target: V5-tagged full length human Tie1 expressed in COS1 cells (pcDNA3-Tie1-V5) (human) (UniProt P35590); experiment: WB, Tie1-transfected COS1 cells
[7] = target: endogenous human Tie1 (primary endothelial cells HDMVEC/HDMEC, HUVEC, HMEC; human tissue sections; SW480 tumor cells) (human) (UniProt P35590); experiment: immunohistochemistry, human skin and melanoma sections
[8] = target: recombinant human Tie1-Fc (extracellular domain of human Tie1 fused to human Fc) (human) (UniProt P35590); experiment: SPR (BIAcore), IgG coupled to CM5 chip, Tie1/Fc as analyte
[9] = target: endogenous human Tie1 (primary endothelial cells HDMVEC/HDMEC, HUVEC, HMEC; human tissue sections; SW480 tumor cells) (human) (UniProt P35590); experiment: immunohistochemistry, human lung and lung carcinoma sections
[10] = target: endogenous human Tie1 (primary endothelial cells HDMVEC/HDMEC, HUVEC, HMEC; human tissue sections; SW480 tumor cells) (human) (UniProt P35590); experiment: immunohistochemistry, human kidney and hypernephroma sections
[11] = target: endogenous human Tie1 (primary endothelial cells HDMVEC/HDMEC, HUVEC, HMEC; human tissue sections; SW480 tumor cells) (human) (UniProt P35590); experiment: immunohistochemistry, human breast and breast carcinoma sections
[12] = target: endogenous human Tie1 (primary endothelial cells HDMVEC/HDMEC, HUVEC, HMEC; human tissue sections; SW480 tumor cells) (human) (UniProt P35590); experiment: confocal microscopy of fixed HUVEC, biotinylated antibody 10 ug/ml
[13] = target: endogenous human Tie1 (primary endothelial cells HDMVEC/HDMEC, HUVEC, HMEC; human tissue sections; SW480 tumor cells) (human) (UniProt P35590); experiment: immunoprecipitation from HUVEC lysates, western blot with goat anti-Tie1
[14] = target: endogenous human Tie1 (primary endothelial cells HDMVEC/HDMEC, HUVEC, HMEC; human tissue sections; SW480 tumor cells) (human) (UniProt P35590); experiment: immunohistochemistry, frozen human tissue sections, biotinylated IgG 10 ug/ml
[15] = target: endogenous human Tie1 (primary endothelial cells HDMVEC/HDMEC, HUVEC, HMEC; human tissue sections; SW480 tumor cells) (human) (UniProt P35590); experiment: immunohistochemistry, formalin-fixed SW480 xenograft from mouse, biotinylated E3 IgG1 10 ug/ml
[16] = target: mouse Tie1 on mouse endothelial cells (mouse) (UniProt Q06806); experiment: as above

Amino acid sequences for entries named in this document (tags omitted). A change or cut given only in a name is not applied to a line headed by its entry. Residues count along the entry.
UniProt P35590: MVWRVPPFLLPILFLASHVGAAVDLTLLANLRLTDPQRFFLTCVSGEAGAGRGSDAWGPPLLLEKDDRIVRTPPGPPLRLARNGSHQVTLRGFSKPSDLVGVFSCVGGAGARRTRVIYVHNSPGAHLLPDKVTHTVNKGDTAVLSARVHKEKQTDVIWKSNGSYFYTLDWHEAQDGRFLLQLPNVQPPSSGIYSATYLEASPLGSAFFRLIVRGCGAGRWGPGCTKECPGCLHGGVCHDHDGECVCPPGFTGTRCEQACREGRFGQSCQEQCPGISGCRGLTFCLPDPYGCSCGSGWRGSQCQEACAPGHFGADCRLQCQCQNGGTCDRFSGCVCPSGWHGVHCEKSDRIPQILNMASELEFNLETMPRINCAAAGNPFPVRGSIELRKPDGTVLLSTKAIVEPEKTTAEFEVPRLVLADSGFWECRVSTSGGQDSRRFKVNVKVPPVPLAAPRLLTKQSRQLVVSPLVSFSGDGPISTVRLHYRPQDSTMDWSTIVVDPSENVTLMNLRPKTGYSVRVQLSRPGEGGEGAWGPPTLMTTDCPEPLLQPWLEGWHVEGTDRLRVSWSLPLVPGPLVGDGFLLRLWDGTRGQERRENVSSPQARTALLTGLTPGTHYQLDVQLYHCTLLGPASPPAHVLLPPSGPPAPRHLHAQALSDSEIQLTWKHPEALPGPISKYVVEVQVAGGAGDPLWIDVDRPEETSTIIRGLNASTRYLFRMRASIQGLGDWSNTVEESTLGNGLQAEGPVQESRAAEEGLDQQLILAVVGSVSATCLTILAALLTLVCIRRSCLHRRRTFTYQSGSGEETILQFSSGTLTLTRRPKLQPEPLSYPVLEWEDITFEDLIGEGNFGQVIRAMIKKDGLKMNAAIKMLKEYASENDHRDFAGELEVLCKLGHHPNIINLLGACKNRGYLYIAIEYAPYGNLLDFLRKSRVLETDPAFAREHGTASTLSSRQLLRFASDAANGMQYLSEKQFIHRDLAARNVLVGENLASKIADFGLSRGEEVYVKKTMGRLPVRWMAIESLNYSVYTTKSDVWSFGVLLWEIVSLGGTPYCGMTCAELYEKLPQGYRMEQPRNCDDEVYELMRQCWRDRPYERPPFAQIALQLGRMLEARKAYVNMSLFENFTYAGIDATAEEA
UniProt Q06806, residues 23-1134: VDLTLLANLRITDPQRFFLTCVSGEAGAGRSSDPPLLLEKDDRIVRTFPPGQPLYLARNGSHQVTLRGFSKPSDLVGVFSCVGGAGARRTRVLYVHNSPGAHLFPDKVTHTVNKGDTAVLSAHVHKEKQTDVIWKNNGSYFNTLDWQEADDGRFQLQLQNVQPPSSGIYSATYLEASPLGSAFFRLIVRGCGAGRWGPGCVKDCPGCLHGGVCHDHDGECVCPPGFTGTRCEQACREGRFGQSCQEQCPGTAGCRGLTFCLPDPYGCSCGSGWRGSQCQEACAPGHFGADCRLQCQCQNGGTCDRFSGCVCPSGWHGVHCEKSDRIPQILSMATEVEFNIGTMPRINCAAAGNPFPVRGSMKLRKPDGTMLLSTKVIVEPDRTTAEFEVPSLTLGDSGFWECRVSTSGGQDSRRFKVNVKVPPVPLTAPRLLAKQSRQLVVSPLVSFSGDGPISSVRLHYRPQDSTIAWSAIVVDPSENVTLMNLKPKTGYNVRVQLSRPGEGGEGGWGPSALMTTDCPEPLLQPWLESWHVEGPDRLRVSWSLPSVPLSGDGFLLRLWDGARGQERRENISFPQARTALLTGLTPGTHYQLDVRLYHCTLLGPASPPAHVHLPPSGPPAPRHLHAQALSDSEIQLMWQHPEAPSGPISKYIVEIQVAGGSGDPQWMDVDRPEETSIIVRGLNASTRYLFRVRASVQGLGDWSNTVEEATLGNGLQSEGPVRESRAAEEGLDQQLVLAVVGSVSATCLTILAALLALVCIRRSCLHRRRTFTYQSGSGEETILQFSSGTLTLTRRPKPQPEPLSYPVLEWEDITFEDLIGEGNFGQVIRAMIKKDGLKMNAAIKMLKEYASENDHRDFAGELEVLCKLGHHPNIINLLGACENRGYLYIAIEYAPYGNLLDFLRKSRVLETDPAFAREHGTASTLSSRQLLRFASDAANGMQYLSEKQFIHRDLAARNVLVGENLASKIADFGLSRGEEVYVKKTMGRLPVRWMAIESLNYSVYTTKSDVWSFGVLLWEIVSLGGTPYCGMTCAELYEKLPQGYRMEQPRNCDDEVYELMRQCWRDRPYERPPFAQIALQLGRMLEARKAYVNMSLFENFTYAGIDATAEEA

Measured: binding

B1: E3 IgG (parental anti-Tie1 antibody E3, DX-2200) (antibody, V domains shown)
VH: EVQLLESGGGLVQPGGSLRLSCAASGFTFSMYGMVWVRQAPGKGLEWVSVISPSGGNTGYADSVKGRFTISRDNSKNTLYLQVNSLRAEDTAVYYCARAPRGYSYGYYYWGQGTLVTVSS
VL: DIQMTQSPLSLSASVGDRVTITCRASQGIGHYLAWYQQKPGKVPKLLIYTASTLQSGVPSRFSGSGSGTDFTLTINSLQPEDVATYYCQQFNSYPHTFGQGTRLDIK
binds: all assays above
